# Measured values from PubChem BioAssay AID1508600 (Functional Genomics Laboratory (NCATS/FGL), 2020).
# Screen size: about 53,000 sequences; about 3,700 (7%) were called active.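 The calls were made as follows: active = gene knockdowns whose robust z-score for IL-1 alpha signal is at least 2 or at most -2, so actives lie on both sides; inactive = the rest.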 The list shows a part of the results.
# Assay: Components of the Cytosolic LPS Sensing Pathway: Gene Identification via Genome-wide siRNA Screen;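 also: robust z of the log signal after scaling to non-targeting control siRNA wells of the plate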
# Conditions: RAW264.7 macrophages, IL-1a HTRF, actives lie on both sides, screened at 100 nM (by protocol), cells primed 5 h with Pam3CSK4 first
# Summary of the method: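 RAW264.7; siRNA 100 nM final, RNAiMAX, 48h 37 degrees C; Pam3CSK4 5 h; LipidA + TransIT-TKO 24 h; IL-1a HTRF; CellTiter-Glo viability; robust z vs negative-control median.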
row,Sequence,z-score
1,CGGUAUCACGGUUAUCCUUTT against Olfr215,inactive: 0.932
2,CCUUGGCCAAUCUCCACAATT against Ptpmt1,inactive: -0.485
3,GGACAUUGGUCCAAAGAGUTT against Rbm4b,inactive: -0.939
4,GGAUCUUGAAGACCAAAAATT against Kazn,active: -2.14
5,CCUUUAAAAGCAAUGACGGTT against Iffo1,inactive: -0.733
6,GGGAGUGCCCUCCUAAUAGTT against Ofd1,inactive: -1.21
7,GGAGCCUUUAAUCUCAUUATT against Wbp1,inactive: -0.463
8,GCUGGGCUUCAACGAUUACTT against Efna4,inactive: 1.3
9,GCUCUACAUCGAAUUGCUGTT against Lig4,active: 4.14
10,CCAGCAUAGAGUACCAGUGTT against Unc13d,inactive: 1
11,GGAUUACCUUUUGUGUGACTT against Capzb,inactive: -0.776
12,GGUGCUUCUGGAAAAGUUGTT against Far1,inactive: 0.412
13,GGCUAAUUCUCAAAGAGAUTT against Dnttip2,inactive: -1.87
14,GCUAACGUACCUGUAACUUTT against Cnp,inactive: -0.484
15,GCACUGCAACACUUGGUCCTT against Lcn12,inactive: -0.99
16,GGGAAAUAAGGAGCUUCCUTT against Ptgs2,inactive: 0.285
17,GCACUUUACGAGUAUGUAATT against Gnl1,inactive: -1.74
18,CGCUAUAACCAUUAGGUCUTT against Slc22a17,inactive: 0.742
19,GGAGUUGUUACUCUAUUUUTT against Pkd2l2,inactive: -0.426
20,GGUAUUUGUAAAUUUGAGGTT against Atl1,inactive: 0.309
21,GGCAUGAAUAGAAUUCUAGTT against Zfp367,inactive: 1.29
22,GCAAAUAUAGCAGUGAAAUTT against Nat1,inactive: 0.0532

row,Sequence,z-score
1,CCAACACCAUUCAAAUAGATT against Kcnh5,inactive: -0.427
2,GGUGAUCCUCAUCAUCAGUTT against Lmf1,inactive: -0.297
3,GCUCAGAAUACAUGGAGCUTT against Btn1a1,inactive: 0.957
4,GGCUGUUUCUGUCAUGGUUTT against Nup133,inactive: 0.383
5,GGUCAGACAGCAAUUCACATT against Gpr146,active: -2.7
6,GGAUGCCCUUGUCACAAAGTT against Fbl,inactive: 0.154
7,GCUAUGGAGGCUAUGGAUGTT against Krtap19-1,inactive: -0.418
8,GGAAAGAGGAAAUCUUUAGTT against Furin,active: 2.04
9,CCUUCCGUUUAGUUUUAUGTT against Prune2,inactive: -0.386
10,GCUAGAAGCUUUCUAUUCUTT against Hsph1,inactive: 1.68
11,CCACCAGUAAGCAAAAGCGTT against Dtx1,inactive: -1.56
12,GGAAUUUUCAAGUUGAUGUTT against Kmo,inactive: 0.578
13,GGCAUUGUUAGACUUGGCCTT against Slc7a7,inactive: 0.0848
14,GGCAAAGUGAGUAAGACAGTT against Habp2,inactive: 0.0806
15,GUGUGUUUACUCAUUUCCATT against H2-T3,inactive: 0.926
16,CGGUGUUAAAUCCAUGAGUTT against Hjurp,inactive: 0.689
17,GGAACAAAUCACCUGCUGUTT against Ext2,inactive: -0.00439
18,GGUGAUGCACUAUUAAGAATT against B3galnt2,inactive: -0.111
19,GCCAAUUGGCAGUUCUGCATT against Cd6,inactive: -0.937
20,GGUGGCUAAAAGCUCUUCCTT against Odc1,inactive: 1.9
21,GGUCAGGUUCCUGACACAATT against Ppp6c,inactive: 1.67
22,GGAUAACUAUAUUCCAGUGTT against Rhobtb3,inactive: 0.885

row,Sequence,z-score
1,GGGUCUUCUGACAAUGCUUTT against Zfyve19,inactive: -0.145
2,GGCUUUCUGGGAACAGAGATT against Epyc,inactive: -0.211
3,GGAAGCAAAGGAAAAGACUTT against Mia2,inactive: 0.832
4,GGGAAAAUGCUUUGUUGGATT against Cnot9,inactive: -0.215
5,GAACUGAGGAGCCUCAAAUTT against Klra20,inactive: 0.765
6,GGAGAUCAUCGACCCAGUGTT against Tuba4a,inactive: -0.677
7,GACCAGAUCCAGAAAUCGGTT against Ccdc57,inactive: -1.19
8,CAGGCAUCACUUCAGGGUGTT against Klra21,inactive: 0.102
9,GGGAUAGGCUUAAACUCAUTT against Pramel13,inactive: 1.13
10,CCUUUGAAAAGUUACCUCCTT against Klk1b16,inactive: 1.9
11,GGUAUAUUUGCCAAAUGAUTT against Klhdc1,inactive: -0.445
12,GGAGCGGAUGGAUGUUUGUTT against App,inactive: 1.05
13,GCACUCUGUUCAGCUAAAATT against Tafa3,active: 2.16
14,CUUAGUGCUCUGGGAGCAGTT against Ms4a5,inactive: 0.487
15,GGUAACCUGAUGGCUGAAATT against Zfp692,active: 2.79
16,GGAAGGUGUUCGUAGAGAATT against Mad2l1,inactive: 0.0941
17,CGUGUCUUUAUUCAUCCCATT against C1s1,inactive: -0.822
18,GGAUCUGAGCCUUAACAAGTT against Lpcat3,active: 2.92
19,GGCCUGUCUCUCUUAUUAATT against Btg2,inactive: -0.28
20,GGAUUGUAAUCAAAUGUGCTT against Plekhh2,inactive: 1.51
21,CGACAUGAAGUGAUUCAUUTT against Zfp459,inactive: 0.576
22,GCAAAGUAUAGCUAUGUGCTT against Gm4759,inactive: -0.936

row,Sequence,z-score
1,GGUCUACAAUGUGAAAAUCTT against Clnk,inactive: -0.989
2,UGCUGGAUUCCAUUGACCUTT against Olfr675,inactive: -1.46
3,GGAAGGAUAUAAGACACAATT against Gbp4,inactive: 0.943
4,CCUAGUAUAUCUGUGUUGUTT against Wnk1,inactive: -0.406
5,CGGGUCUGCUCUUUGGAAATT against Yif1b,inactive: -0.471
6,CCUACUACAUCCGCUACUGTT against Apba2,inactive: -0.366
7,GCUGUGUCGGUGUUGGAUGTT against Ap5z1,inactive: 0.0827
8,CCGCCUUUCUUACAACCAATT against Rpl41,inactive: -0.146
9,GCACAGGGAAUGUUGUAGATT against Polr3d,inactive: -0.696
10,GCAGAUAAUCUAGCAAAGATT against Agps,inactive: 0.903
11,GGGAAUGCUUAUGUAGGCATT against Aldh3b1,inactive: -1.03
12,UAGUCAUUGGGAUUCCUUCTT against Olfr112,active: 2.98
13,GCAAUUUCCUCUCGAGACGTT against Olfr750,inactive: -0.328
14,GGAGAGAGAGAAGAAGGAUTT against Zmat2,inactive: -1.47
15,GCCACGGGUAUAUCUAUAGTT against Tigd4,inactive: -0.296
16,GGAUAGAGUUAAUGAAAAGTT against Poc5,inactive: 0.827
17,GGUCUAUGCUGAUGCUUCUTT against Dhps,inactive: 1.5
18,GGUCAAUUAUGAAGAGUUUTT against Calm3,active: 3.04
19,CGAAGUCUGAAACACAUGUTT against A730018C14Rik,active: 4.13
20,GGCUUUUCAAUUCCACCUUTT against Arid5b,inactive: 0.361
21,GGAAGAAACACCAGUAAGATT against Hbp1,inactive: -1.32
22,GGAUCUAGAUACUUCUAGUTT against Tmub1,inactive: -0.21

row,Sequence,z-score
1,GGAAAUCAGAGAGAAGAUGTT against Nubp1,inactive: -1.53
2,GGACGGAGCUGUAAUUGCATT against Arhgef12,active: 2.16
3,CGUGGAAGGCAAGAUGCAUTT against Pip4p1,inactive: -0.889
4,UUUCUUGGUGGGAUUGACUTT against Taar7b,inactive: -0.392
5,GAUCACACAUAUCAUCUCUTT against Dusp15,inactive: 0.963
6,GGUACUGUCGGUAUCCCACTT against Gcc1,inactive: -1.62
7,CCACACCAGAGGUCUUUGATT against Pde4dip,inactive: -1.74
8,GGACAAAGUCUAGAAACUATT against Lrrc2,inactive: 0.26
9,GGACCAAAUGUAAGAAAAATT against Cstl1,inactive: -0.781
10,GCCUCCUGAAUGACCACAUTT against Klk1b27,active: 2.29
11,GGAUAUCACCUUCGAGAUATT against Ankrd7,inactive: -0.0496
12,GGUGUUGUCUGUGUUUUACTT against Olfr507,inactive: 0.23
13,GUUACCCUGAAGGUCAAUATT against Gstm3,inactive: 0.535
14,CCAAUGUUACGAGAAACUUTT against Smug1,inactive: 1.02
15,GGGAAUCAGCAUACUUCCUTT against Krt74,inactive: 1.61
16,GGCAUCUAAAGGAAAGAAATT against 1810030O07Rik,inactive: -0.495
17,GGAAUUUGUGGAGAAACUATT against Gabbr1,inactive: -0.232
18,GGAGAGAAUGUUUUGGAAUTT against Stat5b,inactive: 0.454
19,GGACAGUGACAAACUGAACTT against Caml,inactive: 0.286
20,GGACUGCAUUCCUCUGAUCTT against Gm4876,inactive: -0.838

# Nothing new here: an excerpt of the list.
row,Sequence,z-score
18,CGCUAUAACCAUUAGGUCUTT against Slc22a17,inactive: 0.742
19,GGAGUUGUUACUCUAUUUUTT against Pkd2l2,inactive: -0.426
20,GGUAUUUGUAAAUUUGAGGTT against Atl1,inactive: 0.309
21,GGCAUGAAUAGAAUUCUAGTT against Zfp367,inactive: 1.29
